Laboratory results from patent US20250230246A1.
No constants are given. Whether binding was seen depends on the method and setting. Some results given as binding are weak or reduced against the parent protein; the word gives no strength.

Amino acid sequences for entries named in this document (tags omitted).
UniProt P26718: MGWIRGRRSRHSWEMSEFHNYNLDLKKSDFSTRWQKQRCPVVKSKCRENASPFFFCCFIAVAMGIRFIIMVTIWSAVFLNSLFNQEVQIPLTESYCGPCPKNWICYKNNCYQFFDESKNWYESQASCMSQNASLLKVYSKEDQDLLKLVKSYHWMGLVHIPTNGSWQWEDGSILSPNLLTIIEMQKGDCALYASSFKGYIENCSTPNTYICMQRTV

Target: NKG2D expressed on the membrane of CHO cells (UniProt P26718)
Experiment: binding of biotinylated protein to transfected CHO cells (FIG. 1A)

B1: biotinylated MICB (ligand, human, UniProt Q29980 23-309, looked up)
chain: AEPHSLRYNLMVLSQDGSVQSGFLAEGHLDGQPFLRYDRQKRRAKPQGQWAENVLGAKTWDTETEDLTENGQDLRRTLTHIKDQKGGLHSLQEIRVCEIHEDSSTRGSRHFYYDGELFLSQNLETQESTVPQSSRAQTLAMNVTNFWKEDAMKTKTHYRAMQADCLQKLQRYLKSGVAIRRTVPPMVNVTCSEVSEGNITVTCRASSFYPRNITLTWRQDGVSLSHNTQQWGDVLPDGNGTYQTWVATRIRQGEEQRFTCYMEHSGNHGTHPVPSGKALVLQSQRTD
modifications: biotinylated (site not stated)
- binding: binds
